Measurements: US10864179B2, “Histone deacetylase inhibitors for the use in the treatment of drug resistant melanoma” (STICHTING HET NEDERLANDS KANKER INSTITUUT-ANTONI VAN …, priority 2015, dated 2020)
“Also recorded” adds a separate entry of the source. At least one structure is not confirmed: it was looked up by name or label, or the drawing left a doubt.

What was measured:
A375 melanoma cells [1] = assay: Long-term colony formation assay, A375 cells; type: cell-based, human; details: for proliferation in long-term colony formation assay: drug(s) without HDACi/BRAFi partner
Text: (§1) FIG. 1. BRAF inhibition is antagonized by HDAC inhibition in melanoma. A). […] The cells were fixed and stained at day 14. B). Short-term proliferation assay of melanoma (A375) cells. […] Error bars represent s.d. of biological triplicates. C,D). HDAC inhibitors and vemurafenib have antagonistic effects on MAPK pathway and HDAC inhibitors can rescue cells from vemurafenib-induced apoptosis. A375 were pre-treated with 1 microM vorinostat and 1 microM entinostat for 48 hrs and then treated with the combination of HDAC inhibitor (1 microM) and vemurafenib (1 microM) for additional 24 hrs. The levels of p-RB, p-MEK, MEK, cleaved PARP (cl. PARP) and ac-H3 were detected by western blot. β-actin served as the loading control.
(§2) FIG. 2. Other HDACi also confer resistance to vemurafenib. […] B).
(§3) FIG. 3. HDACi confers resistance to the combination of a MEK and a BRAF inhibitor in melanoma. A,B,C).

[2] = test system: 4397A, 4397B, 4393R and 4393L cells; assay: Long-term colony formation assay, ex vivo PLX4720-resistant A375 clones; type: cell-based, human; details: four cell lines with in vivo acquired PLX4720 resistance
Text: FIG. 8. In vitro and ex vivo BRAF inhibitor-resistant clones are hypersensitive to HDACi.
We explanted four PLX4720 resistant tumors from mice immediately after acquisition of PLX4720 resistance in vivo and continued to culture these cells in vitro in the presence of BRAF inhibitor. These cells were designated 4397A, 4397B, 4393R and 4393L.

Colo741 melanoma cells = assay: Long-term colony formation assay, Colo741 cells; type: cell-based; details: MAPK pathway inhibitor(s) without HDACi
Text: as §2, §3

SK-MEL-147R cells = assay: Long-term colony formation assay, MEKi-resistant SK-MEL-147R cells; type: cell-based, human; details: SK-MEL-147R versus parental SK-MEL-147; 1 μM vorinostat, 100 nM Trametinib
Experimental: (a). Long-term colony formation assay of SK-MEL-147 and MEKi-resistant SK-MEL-147R cells cultured in the presence of 1 μM vorinostat and/or 100 nM Trametinib.
(b). Long-term colony formation assay of SK-MEL-147 and SK-MEL-147R cells cultured in the presence of indicated concentrations of vorinostat and/or 5 mM NAC.
The A375, SK-Mel-147 and SK-Mel-2 melanoma cell lines were obtained from ATCC. […] Trametinib resistant SK-mel-147 and SK-mel-2 were generated by long term culturing with 25 nM (first month), 50 nM (second month) and 100 nM (third month) trametinib.
For full details, see ref. (Huang et al., 2009).

A375 melanoma cells [3] = assay: Short-term proliferation assay (IncuCyte), A375 cells; type: cell-based, human; details: each drug alone, 1 microM
Text: as §1

p-MEK in A375 cells = assay: Western blot of MAPK pathway and apoptosis markers, A375 cells; type: cell-based, human
Text: as §1
FIG. 7. HDACi is effective in treatment of BRAF inhibitor resistant melanoma in vivo. A,B). […] A375 melanoma cells were grown as tumor xenografts in BalbC immunodeficient nude mice. After tumor establishment (150-200 mm3), mice were treated with (A). vehicle, PLX4720 (40 mg/kg supplemented in the chow). Upon development of BRAF inhibitor resistance, mice receiving PLX4720 were randomized in four arms (B) receiving: vehicle, PLX4720 (300 mg/kg supplemented in the chow), Vorinostat (100 mg/kg i.p.) or PLX4720 (300 mg/kg supplemented in the chow) plus Vorinostat (100 mg/kg i.p.). C). Resistance to vemurafenib in A375 cells is mediated through reactivation of MAP kinase pathway. […]

[4] = test system: p-MEK in 4397A, 4397B, 4393R and 4393L cells; assay: Western blot of p-MEK, ex vivo PLX4720-resistant A375 clones; type: cell-based, human; details: 2 microM vemurafenib, 24 hrs
[5] = test system: mutant BRAF metastatic melanoma; details: cited from earlier work
A375R cells = assay: Long-term colony formation assay, vemurafenib-resistant A375R cells; details: A375R cells versus parental A375; vorinostat 1 microM, vemurafenib 2 microM

Compound | effect of HDACi on the anti-proliferative effect of vemurafenib (A375 melanoma cells [1]; HDACi together with vemurafenib) | proliferation in long-term colony formation assay (A375 melanoma cells [1]) | sensitivity of cells to HDACi [2] | proliferation in long-term colony formation assay (Colo741 melanoma cells) | sensitivity of cells in long-term colony formation assay (SK-MEL-147R cells) | cell proliferation (cell confluence, IncuCyte) (A375 melanoma cells [3]) | p-MEK levels (p-MEK in A375 cells; A375 cells, single drug) | p-MEK levels (p-MEK in A375 cells; parental A375 cells, 2 microM vemurafenib, 24 hrs) | p-MEK levels [4] | time until resistance develops, on average ([5]; from initial use, daily practice) [months] | tumor burden ([5]; initial response in patients) | sensitivity of cells in long-term colony formation assay (A375R cells)
Cc1[nH]c2ccccc2c1CCNCc1ccc(/C=C/C(=O)NO)cc1 [panobinostat, N-hydroxy-3-[4-[[[2-(2-methyl-1H-indol-3-yl)-ethyl]-amino]methyl]phenyl]-2£-2-propenamide] | conferred resistance to vemurafenib | mildly anti-proliferative | very sensitive | – | – | – | – | – | – | – | – | –
CC(=O)Nc1cccc(-n2c(=O)n(C3CC3)c(=O)c3c(Nc4ccc(I)cc4F)n(C)c(=O)c(C)c32)c1 [trametinib] | – | effective in limiting proliferation | – | effective in limiting proliferation | resistant | – | – | – | – | – | – | –
CCCS(=O)(=O)Nc1ccc(F)c(C(=O)c2c[nH]c3ncc(-c4ccc(Cl)cc4)cc23)c1F [vemurafenib] | – | inhibition of proliferation | – | – | – | restricted cell proliferation | reduces p-MEK | reduction in p-MEK; also recorded: loss of p-MEK | maintained significant levels of p-MEK; also recorded: abrogated in all resistant clones | ≤ 7 | reduces tumor burden dramatically | resistant
